The list shows a part of the results.

This assay concerns T1, CTL2-GFP (C. trachomatis L2/434/Bu, GFP-expressing).
T1 construct: L2/434/Bu, GFP-expressing
Also on record: species or system HeLa; Intracellular C. trachomatis growth in HeLa cells, bulk GFP fluorescence relative to DMSO. The conditions noted are these: bulk GFP, single well; 28.5 h, 10 µM; inhibitor.
Turning to `Cc1ccc(S(=O)(=O)N2CCC(OC(N)=O)CC2)cc1` [CBK003369], the “% of control remaining” value was 94.9126%. Consider `O=C(O)CCc1nn2c3ccccc3n(CCN3CCCCC3)c2nc1=O` [CBK267519], for which the “% of control remaining” value is reported as 116.498%. The figure for `O=C(CCCOc1ccccc1)NCc1ccc(OC2CCNCC2)cc1` [CBK028427T] is 109.01%; for `CCC1CCCCN1C(=O)c1cc2cc(Cl)ccc2[nH]1` (centres unmarked) [CBK074329] it is 139.771%; for `Cc1cccc(CN(CC(=O)Nc2ccc3c(c2)OCCO3)S(=O)(=O)c2ccc(Cl)cc2)c1` [CBK264910] it is 90.2893%. The figure for `O=C(O)CCN1C(=O)c2ccc(NC(=O)Cc3cccs3)cc2C1=O` [CBK268240] is 113.512%. The figure for `Cc1ccc(-c2csc3c(=O)[nH]c(N4CCCC(C(=O)NCC(N)=O)C4)nc23)cc1` (centres unmarked) [CBK215542] is 155.72%; for `CN1CCC(N(C)C(=O)NCCCN2CCCC2=O)C1` (centres unmarked) [CBK156021] it is 103.282%; for `O=C(O)CSCc1ccc(C(=O)O)o1` [CBK263267] it is 131.862%. For the compound `Cc1ccc2c(c1)C1(CCN(CC3CC3)CC1)NC(=O)C2` [CBK040217], the “% of control remaining” value is recorded as 85.5253%. The figure for `O=C(NCc1cccnc1)c1ccccc1-n1cccc1` [CBK149602] is 96.2862%; for `CC(C)(C)OC(=O)N1CCC(Oc2nccc3c2ccn3Cc2ccc(S(C)(=O)=O)cc2)CC1` [CBK132881] it is 97.887%. For the compound `Cc1cc(C)cc(OCC(=O)NNC(=O)CN2C(=O)c3ccccc3C2=O)c1` [CBK262394], the “% of control remaining” value was determined as 132.702%. Turning to `O=[N+]([O-])c1ccc(S(=O)(=O)Nc2nnc(Cc3ccc(Cl)cc3)s2)cc1` [CBK200046], the “% of control remaining” value is listed as 116.559%. In the case of `Cc1ncsc1CCOc1nc2ccccc2nc1NC(C)C` [CBK115736] it was 81.8303%. For the compound `NS(=O)(=O)c1ccc(NC(=S)Nc2nn(Cc3ccc(Cl)c(Cl)c3)cc2Br)cc1` [CBK267082], the “% of control remaining” value is reported as 80.8708%. As for `Cc1ccnc(NC(=O)c2ccccc2)c1` [CBK004031], the “% of control remaining” value is 123.489%.

As for `COc1ccc(-c2nnc(SCC(=O)NC(=O)c3ccccc3)n2CC(C)C)cc1` [CBK297527], the “% of control remaining” value worked out at 140.693%. In the case of `O=C(c1ccc(-c2nccnc2NCc2cccs2)cc1)N1CCOCC1` [CBK037059] it was 105.57%.

As to `O=S(=O)(Cc1ccccc1)NCc1ccccn1` [CBK262241], the “% of control remaining” value is 114.573%. As to `CS(=O)(=O)c1ccc(Cn2cc(CN3CCC(Sc4ccccn4)CC3)nn2)cc1` [CBK149475], the “% of control remaining” value was found to be 111.476%.

Take `O=[N+]([O-])c1ccccc1S(=O)(=O)NCCSCc1ccc(Cl)c(Cl)c1` [CBK058810]: the “% of control remaining” value worked out at 98.0603%. In the case of `Cc1nc2c(OCC3CCCCC3)cccn2c1N(C)CC1CC1` [CBK147279] it was 52.8208%; in that of `COc1cc(-c2cc(-c3ccccc3)nc(SCC(=O)O)c2C#N)cc(OC)c1OC` [CBK131867], 94.6237%.

For the compound `CN(c1ccc(C(=O)Nc2cccc(C(=O)O)c2)cc1)S(=O)(=O)c1ccccc1` [CBK265729], the “% of control remaining” value turned out to be 199.636%.

Consider `Cc1ccc2oc3c(c(=O)c2c1)C(c1ccc(OCC(N)=O)cc1)N(Cc1ccc2c(c1)OCO2)C3=O` (centres unmarked) [CBK267189], for which the “% of control remaining” value is on record as 169.542%. The figure for `Cc1nc(S(=O)(=O)Cc2nccn2C)n(CC2CCCO2)c1C` (centres unmarked) [CBK304012] is 105.893%; for `Cc1cc(C)n(-c2ccc3nnc(CCCC(=O)O)n3n2)n1` [CBK307630] it is 119.108%; for `O=C(c1cc(F)cc(F)c1)N1CCC(c2n[nH]c3ncccc23)CC1` [CBK284909] it is 118.39%. Regarding `Cc1cc(=O)oc2cc(OC(C)C(=O)Nc3sc4c(c3C(N)=O)CCCC4)ccc12` (centres unmarked) [CBK268050], the “% of control remaining” value is given as 99.592%.

Turning to `CC(C)Nc1nccnc1Sc1cccc(O)c1` [CBK093725], the “% of control remaining” value was 89.4559%. As to `c1ccc2c(c1)CCC[C@H]2Oc1cncc(N2CCNCC2)n1` [CBK172388G], the “% of control remaining” value is 126.056%. Consider `O=[N+]([O-])c1ccccc1NC1OCC(O)C(O)C1O` (centres unmarked) [CBK262032], for which the “% of control remaining” value stood at 118.143%. In the case of `Cc1cccn2c(=O)cc(CN3CCc4c(nc(C5CC5)n4C)C3)nc12` [CBK305256] it was 85.8542%.

For the compound `CN(C)c1ccc(-n2ccn(S(=O)(=O)c3ccc4ccccc4c3)c2=O)cc1` [CBK106607], the “% of control remaining” value was 174.932%. The figure for `C[N+]1([O-])CCN(c2nccn(CCOc3cc(F)c(F)cc3F)c2=O)CC1` [CBK081593] is 89.1319%; for `CC(C)c1ccc(/C=C/C(=O)N[C@H]2CC[C@H](O)CC2)cc1` [CBK149644] it is 107.817%; for `O=C(c1nccs1)C1CCN(C(=O)c2ccccc2F)CC1` [CBK284174] it is 123.006%. In the case of `O=C(NC(Cc1ccccc1)C(O)c1nccs1)C1CC=CCC1` (centres unmarked) [CBK284763] it was 99.0311%; in that of `C=C(C)CN1CCN(C(=O)C(CC)Oc2ccccc2F)CC1` (centres unmarked) [CBK282935], 107.152%.

Regarding `CN(C)CCN(Cc1cccs1)Cc1cc(Cl)ccc1O` [CBK282847], the “% of control remaining” value came out at 97.0144%. `COc1ccc(CCNC(=O)CN2CCCCC2C)cc1` (centres unmarked) [CBK304827]: the “% of control remaining” value is on record as 101.254%. Consider `CN(CC(=O)Nc1ccn(Cc2cccnc2)n1)c1ccc(C#N)cn1` [CBK306105], for which the “% of control remaining” value was found to be 87.7812%. The figure for `NCCC(=O)N(CCc1cc(C(F)(F)F)cc(C(F)(F)F)c1)c1ccc(Oc2ccccc2)cc1` [CBK002998T] is 114.276%; for `O=C(Cc1cc(F)cc(F)c1F)Nc1ccc2[nH]ccc2c1` [CBK159686] it is 135.291%; for `CCCS(=O)(=O)N1CCN(Cc2cc(Br)ccc2O)CC1` [CBK264165G] it is 125.907%.

With `CN1CCC(=NNC(=O)CCSc2ccc(Cl)cc2)CC1` [CBK020372], the “% of control remaining” value worked out at 178.08%.

For `Cc1ccccc1-n1c(=O)cc(N2CCN(c3ccc(F)cc3)CC2)[nH]c1=O` [CBK287508], the “% of control remaining” value is on record as 155.706%.

As for `COc1ccc(C(=O)CCCN2CC3CCC(NC(=O)Nc4ccc(F)c(F)c4)CC3C2)cc1` (centres unmarked) [CBK083514T], the “% of control remaining” value worked out at 77.7409%. The figure for `CN(C)CCNC(=O)c1cccc(-c2cncc(Nc3cccc(Cl)c3)n2)c1` [CBK065229] is 118.427%. In the case of `CCOC(=O)C1CCN(S(=O)(=O)c2ccc(NC(C)=O)c(Cl)c2)CC1` [CBK043748] it was 103.231%; in that of `Cc1ccccc1-c1ccccc1CC1(C(N)=O)CCN(C(=O)CCc2ccccc2)CC1` [CBK285725], 123.153%; in that of `CC(C)CNC(=S)NNC(=O)CC(C)O` (centres unmarked) [CBK266921], 139.666%. The figure for `CC(C)N1CC[C@@H]2[C@H]1C(=O)NC[C@H](CCC(=O)NCc1ccccc1)N2C` [CBK289027] is 139.839%. For the compound `Nc1nc(CCC(=O)N2Cc3cnn(Cc4ccc(F)cc4)c3C2)cs1` [CBK307019], the “% of control remaining” value was 101.496%. Regarding `O=C1CC2(CCN(C(=O)N3CCCC3)CC2)Oc2ccc(F)cc21` [CBK283597], the “% of control remaining” value stood at 144.272%. In the case of `Fc1ccc(Oc2nccnc2N2CCN(Cc3ccc(Cl)c(Cl)c3)CC2)cc1` [CBK083007T] it was 138.533%; in that of `O=C(C1CC2C=CC1C21CC1)N1CCN(c2nccs2)CC1` (centres unmarked) [CBK281640], 124.722%.

`O=C(NCCCc1ccccc1)c1cccc(S(=O)(=O)N2CCCC2)c1` [CBK305024]: the “% of control remaining” value stood at 85.9511%. With `O=C(c1ccco1)N1CCN(C(=O)C(c2ccccc2)c2ccccc2)CC1` [CBK144462], the “% of control remaining” value was 99.3491%.

As for `Cc1nn(C)cc1CNC(=O)c1cc2ncc(Br)cn2n1` [CBK304336], the “% of control remaining” value is 92.9436%.

Take `CC1CCCC(C)N1C(=O)Cn1ncc2cccn2c1=O` (centres unmarked) [CBK283680]: the “% of control remaining” value is 106.263%. In the case of `O=C(NCCCn1ccnc1)c1cccnc1-c1nc2ccccc2s1` [CBK269939] it was 117.815%; in that of `CCCNc1nccnc1-c1ccc(F)c(Cl)c1` [CBK037100], 152.767%.

Take `COc1ccc(Cl)cc1CN(C)C(=O)c1cc(C(C)C)n2ncnc2n1` [CBK307331]: the “% of control remaining” value is reported as 134.793%. On to `Cc1cc(C(=O)NC(Cc2ccncc2)C2CC(O)C2)c(C)o1` (centres unmarked) [CBK307181], for which the “% of control remaining” value stood at 149.26%. On to `O=C(Nc1ccccc1C(=O)N1CCCC1)c1ccccc1CCc1ccccc1` [CBK268608], for which the “% of control remaining” value is 103.397%. In the case of `CC(C)(C)c1ccc(-n2cc(-c3ccc(Cl)cc3)nn2)cc1` [CBK113031] it was 106.237%. As for `COC(=O)c1cc(C)nc2sc(C)c(N)c12` [CBK115343], the “% of control remaining” value is 119.051%. The figure for `CCCN1CCC(N2CCN(CCO)CC2)CC1` [CBK261920] is 100%; for `CC(C)(O)C#Cc1ccc(C(=O)NCCC(=O)O)s1` [CBK267704] it is 121.419%. The figure for `CCCn1cc(NC(=O)C2(c3ccccc3)CCC2)ccc1=O` [CBK306237] is 114.659%; for `O=C(NC(=O)c1ccc(F)c(Cl)c1)Nc1nnc(C(F)(F)F)s1` [CBK076830] it is 89.1534%; for `COC[C@H](C)Nc1ccc(C(=O)N2CCC(N3CCOCC3)CC2)cn1` [CBK306917] it is 137.316%. Consider `CN(C)CCSc1cc(N2CCCC2)ncn1` [CBK105295], for which the “% of control remaining” value was determined as 103.343%. As to `CCc1nc2ccc(C(=O)NCc3cccs3)cn2c1N(C)CC` [CBK145492], the “% of control remaining” value was determined as 92.2219%. In the case of `Nc1nc2c(nc(SCCc3ccccc3)n2C2OC(CO)C(O)C2O)c(=O)[nH]1` (centres unmarked) [CBK268686] it was 109.564%. In the case of `O=C(O)c1cccn1-c1cc(Cl)cc(Cl)c1` [CBK286932] it was 124.222%; in that of `COCC(=O)N1CCN2C(=O)c3cc(-c4ccccc4F)ccc3NC(=O)[C@H]2C1` [CBK289587], 142.523%. Take `c1ccc(Nc2nc(-c3ccc(N4CCOCC4)cc3)cn3ccnc23)cc1` [CBK066222]: the “% of control remaining” value is recorded as 60.5084%.
